Measurements: PubChem BioAssay (EPA / NIEHS)
The inconclusive results got no clear call from the source; some entries with a clear call stand among them for comparison. Potencies of inconclusive entries are doubtful fits and often do not repeat. Activity calls are given as the source filed them. Rule for the calls: active = hit-call score of the fitted dose curve at least 0.9, where 1 is the maximum; inconclusive = response in the unintended direction; inactive = score below 0.9.

Assay: CCTE_Deisenroth_AIME_384WELL_CTox_Inactive: Cytotoxicity Assessment (CTOX) in CCTE's 384-well Estrogen Receptor Transactivation Assay without AIME metabolic competence (metabolism negative), Deisenroth Lab (AID 2284039);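 note: cell viability via live-cell protease substrate cleaved to fluorescent probe; cells exposed 24 h to medium preincubated 2 h with alginate-water beads without S9; loss of fluorescence signal means loss of viability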
Procedure, shortened: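 Metabolism-negative arm: chemicals (10-point, 0.002 - 200 uM) preincubated 2 h with alginate-water lids, medium moved onto VM7Luc4E2 cells for 24 h. Fluorescent live-cell protease readout; bidirectional curve fit.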

Row | Structure (SMILES) | outcome | AC50
1 | c1cc[c]([Hg][c]2ccccc2)cc1 | inactive | –
2 | O=C1CCCO1 | – | inconclusive: 0.645 nM
3 | CCNS(=O)(=O)C(F)(F)C(F)(F)C(F)(F)C(F)(F)C(F)(F)C(F)(F)C(F)(F)C(F)(F)F | – | inconclusive: 0.2 nM
4 | CCCN(CCC)c1c([N+](=O)[O-])cc(C(F)(F)F)cc1[N+](=O)[O-] | – | inconclusive: 0.2 nM
5 | O=S1(=O)OC(c2cc(Br)c(O)c(Br)c2)(c2cc(Br)c(O)c(Br)c2)c2ccccc21 | inactive | –
6 | CCON=C(CC)C1=C(O)CC(c2c(C)cc(C)cc2C)CC1=O (centres undefined) | – | inconclusive: 0.2 nM
7 | C=CC(=O)NCNC(=O)C=C | – | active: 19800 nM
8 | CCOP(=O)(OCC)Oc1nc(Cl)c(Cl)cc1Cl | – | inconclusive: 0.248 nM

Assay: CCTE_Shafer_MEA_dev_bursting_electrodes_number: CCTE's Neural Network Formation Assay for Number of Bursting Electrodes, Shafer Lab (AID 2284043);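 for AC50: potency is for loss of bursting electrodes relative to DMSO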
Procedure, shortened: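 Primary rat cortical neurons were cultured on PEI-coated 48-well MEA plates (16 electrodes/well) and exposed from plating through day 12, with compound renewed at feeds on DIV 5 and 9. Electrodes bursting ≥1 per 2 min were counted on DIV 5, 7, 9, 12; trapezoidal AUC taken.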

Row | Structure (SMILES) | outcome | AC50
9 | c1cc2c3c(cccc3c1)CC2 | inactive | –
10 | O=C1C2(Cl)C3(Cl)C4(Cl)C(Cl)(Cl)C5(Cl)C3(Cl)C1(Cl)C5(Cl)C24Cl (centres undefined) | – | active: 3550 nM
11 | CCOP(=O)(OCC)Oc1nc(Cl)c(Cl)cc1Cl | – | inconclusive: 50000 nM

Assay: CCTE_Shafer_MEA_acute_LDH: CCTE's Lactate Dehydrogenase Assay for Cytotoxicity in the Neural Acute Assay, Shafer Lab (AID 2284086);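 note: active means LDH release rises above DMSO vehicle level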
Procedure, shortened: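 Medium from rat cortical neuron MEA cultures sampled right after the 40 min compound-exposure recording; released LDH measured by absorbance at 490 nm. Analyzed as signal gain relative to DMSO.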

Row | Structure (SMILES) | AC50 | outcome
12 | Nc1c(Cl)cc([N+](=O)[O-])cc1Cl | active: 10.5 nM | –
13 | ClC1(Cl)C2(Cl)C3(Cl)C4(Cl)C(Cl)(Cl)C5(Cl)C3(Cl)C1(Cl)C5(Cl)C24Cl (centres undefined) | inconclusive: 20000 nM | –
14 | Oc1ccc(Cl)cc1Cc1ccccc1 | – | inactive
